Laboratory results: publication PMC8882603
Results are given in words; binding and its absence hold for the method and conditions named. In cells and extracts the contact can be indirect. Some binding calls cover weakened binding; strength is not graded here.

The chains behind the UniProt entries cited, without tags or fusion partners.
UniProt P22366: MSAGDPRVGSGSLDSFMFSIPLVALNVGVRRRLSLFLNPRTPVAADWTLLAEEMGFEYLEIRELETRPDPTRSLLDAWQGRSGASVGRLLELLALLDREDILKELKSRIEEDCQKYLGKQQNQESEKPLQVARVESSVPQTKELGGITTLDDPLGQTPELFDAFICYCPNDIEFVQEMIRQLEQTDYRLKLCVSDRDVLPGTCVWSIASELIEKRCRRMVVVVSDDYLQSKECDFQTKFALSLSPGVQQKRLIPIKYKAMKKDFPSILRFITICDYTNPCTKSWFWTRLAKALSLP
UniProt Q99836: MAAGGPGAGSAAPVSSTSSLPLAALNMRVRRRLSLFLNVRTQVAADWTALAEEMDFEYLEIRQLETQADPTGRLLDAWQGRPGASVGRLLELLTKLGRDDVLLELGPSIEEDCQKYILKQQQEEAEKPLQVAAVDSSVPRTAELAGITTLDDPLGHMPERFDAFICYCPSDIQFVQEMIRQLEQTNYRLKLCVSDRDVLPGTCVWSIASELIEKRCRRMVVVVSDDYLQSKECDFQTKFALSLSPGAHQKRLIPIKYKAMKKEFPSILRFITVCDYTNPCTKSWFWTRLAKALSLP
UniProt Q9CUN6: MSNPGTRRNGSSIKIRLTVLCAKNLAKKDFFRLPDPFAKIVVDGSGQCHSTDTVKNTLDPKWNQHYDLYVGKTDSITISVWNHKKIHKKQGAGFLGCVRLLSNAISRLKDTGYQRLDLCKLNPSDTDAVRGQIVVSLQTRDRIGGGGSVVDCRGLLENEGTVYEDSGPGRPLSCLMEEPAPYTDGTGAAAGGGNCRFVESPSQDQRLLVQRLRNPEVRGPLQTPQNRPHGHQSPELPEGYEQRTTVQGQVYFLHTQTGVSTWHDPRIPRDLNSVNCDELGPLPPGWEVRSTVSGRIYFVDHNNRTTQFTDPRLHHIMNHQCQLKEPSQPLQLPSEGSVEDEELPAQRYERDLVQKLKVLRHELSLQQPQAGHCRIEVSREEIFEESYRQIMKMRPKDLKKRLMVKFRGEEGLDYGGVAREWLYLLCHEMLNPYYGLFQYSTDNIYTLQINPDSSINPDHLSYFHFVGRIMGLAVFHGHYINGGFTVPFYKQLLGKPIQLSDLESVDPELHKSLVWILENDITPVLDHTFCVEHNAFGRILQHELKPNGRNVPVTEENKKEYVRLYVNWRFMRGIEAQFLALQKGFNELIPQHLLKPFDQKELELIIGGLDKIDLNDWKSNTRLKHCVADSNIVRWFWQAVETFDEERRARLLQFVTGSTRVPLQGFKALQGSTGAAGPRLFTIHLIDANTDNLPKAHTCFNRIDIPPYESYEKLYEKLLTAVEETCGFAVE
UniProt Q9HCE7: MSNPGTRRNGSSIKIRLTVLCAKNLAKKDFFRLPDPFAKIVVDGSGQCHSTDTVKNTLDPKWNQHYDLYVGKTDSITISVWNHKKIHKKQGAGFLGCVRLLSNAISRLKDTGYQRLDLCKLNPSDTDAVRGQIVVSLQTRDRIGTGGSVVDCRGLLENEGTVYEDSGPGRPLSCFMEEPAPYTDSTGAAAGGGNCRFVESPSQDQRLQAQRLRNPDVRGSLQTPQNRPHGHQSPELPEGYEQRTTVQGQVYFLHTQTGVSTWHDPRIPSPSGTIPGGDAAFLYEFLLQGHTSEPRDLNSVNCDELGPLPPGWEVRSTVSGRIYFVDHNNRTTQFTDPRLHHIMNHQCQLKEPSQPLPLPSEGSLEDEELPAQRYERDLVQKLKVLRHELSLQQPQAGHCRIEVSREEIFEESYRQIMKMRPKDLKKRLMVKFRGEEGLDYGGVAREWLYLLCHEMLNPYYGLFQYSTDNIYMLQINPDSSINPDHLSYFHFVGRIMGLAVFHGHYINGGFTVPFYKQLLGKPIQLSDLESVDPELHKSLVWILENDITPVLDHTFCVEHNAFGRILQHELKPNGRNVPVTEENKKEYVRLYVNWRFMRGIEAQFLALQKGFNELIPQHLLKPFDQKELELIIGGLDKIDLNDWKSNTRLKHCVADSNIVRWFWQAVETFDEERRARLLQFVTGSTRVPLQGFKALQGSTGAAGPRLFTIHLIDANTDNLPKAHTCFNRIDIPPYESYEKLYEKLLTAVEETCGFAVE

Key:
[1] = target: MyD88 (endogenous, RAW-PPE36 macrophages) (mouse (endogenous in RAW264.7)) (UniProt P22366); experiment: co-IP; RAW-PPE36 and control RAW264.7 macrophages; lysates immunoprecipitated for MyD88, precipitates immunoblotted for Smurf1
MyD88-HA = MyD88-HA (UniProt Q99836); experiment: co-IP; HEK293T cells co-transfected with pMyD88-HA, pPPE36-Flag, pSmurf1-Myc and pUb-Flag for 36 h; lysates immunoprecipitated with anti-HA beads, precipitates immunoblotted (anti-Myc, anti-Smurf1); with and without PPE36

Row | Substance | binding [1] | binding (MyD88-HA)
1 | Smurf1 (endogenous, RAW-PPE36 macrophages) (from UniProt Q9CUN6 1-731) (enzyme) | binds | –
2 | Smurf1-Myc (from UniProt Q9HCE7 1-757) (enzyme) | – | binds
